Experimental data published in the supplement of paper PMC12823440, “Inhibitors supercharge kinase turnover through native proteolytic circuits” (Nature, 2025).
Structures can show the parent of a compound that is named as a salt. This is one part of the list. The calls rarely recur for the same compound in another form.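 In K562 cells expressing nanoluciferase-fused kinases, luminescence was recorded at 4 h intervals between 2 and 18 h, normalized as percent of control with DMSO at 100% and a positive control at 0%. A significant (2 sigma) signal drop marks a time point as decreased. The authors' rule for a hit is not shown and takes in more than the number of time points.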

By UniProt entry, the sequences of proteins in these tests, tags left out. Where a name states a change or a piece, a line headed by the entry shows the natural chain unless it says otherwise.
UniProt Q13546: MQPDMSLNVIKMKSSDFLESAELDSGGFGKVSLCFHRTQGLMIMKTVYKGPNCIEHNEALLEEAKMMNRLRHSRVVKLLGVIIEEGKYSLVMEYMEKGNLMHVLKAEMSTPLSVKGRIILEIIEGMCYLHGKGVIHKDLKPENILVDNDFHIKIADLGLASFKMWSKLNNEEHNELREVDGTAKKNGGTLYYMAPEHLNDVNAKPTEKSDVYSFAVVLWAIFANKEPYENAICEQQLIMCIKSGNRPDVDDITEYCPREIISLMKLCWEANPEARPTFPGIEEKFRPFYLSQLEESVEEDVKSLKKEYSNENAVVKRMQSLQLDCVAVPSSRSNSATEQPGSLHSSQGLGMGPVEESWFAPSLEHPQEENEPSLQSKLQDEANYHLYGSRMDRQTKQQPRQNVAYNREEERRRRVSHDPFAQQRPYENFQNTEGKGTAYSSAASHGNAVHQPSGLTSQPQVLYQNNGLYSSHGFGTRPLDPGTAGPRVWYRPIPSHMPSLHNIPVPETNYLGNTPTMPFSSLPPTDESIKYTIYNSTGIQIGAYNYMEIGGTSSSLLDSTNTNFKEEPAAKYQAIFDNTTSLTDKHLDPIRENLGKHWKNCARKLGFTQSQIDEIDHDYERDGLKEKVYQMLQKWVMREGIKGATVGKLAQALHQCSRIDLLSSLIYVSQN
UniProt Q15418, whole entry: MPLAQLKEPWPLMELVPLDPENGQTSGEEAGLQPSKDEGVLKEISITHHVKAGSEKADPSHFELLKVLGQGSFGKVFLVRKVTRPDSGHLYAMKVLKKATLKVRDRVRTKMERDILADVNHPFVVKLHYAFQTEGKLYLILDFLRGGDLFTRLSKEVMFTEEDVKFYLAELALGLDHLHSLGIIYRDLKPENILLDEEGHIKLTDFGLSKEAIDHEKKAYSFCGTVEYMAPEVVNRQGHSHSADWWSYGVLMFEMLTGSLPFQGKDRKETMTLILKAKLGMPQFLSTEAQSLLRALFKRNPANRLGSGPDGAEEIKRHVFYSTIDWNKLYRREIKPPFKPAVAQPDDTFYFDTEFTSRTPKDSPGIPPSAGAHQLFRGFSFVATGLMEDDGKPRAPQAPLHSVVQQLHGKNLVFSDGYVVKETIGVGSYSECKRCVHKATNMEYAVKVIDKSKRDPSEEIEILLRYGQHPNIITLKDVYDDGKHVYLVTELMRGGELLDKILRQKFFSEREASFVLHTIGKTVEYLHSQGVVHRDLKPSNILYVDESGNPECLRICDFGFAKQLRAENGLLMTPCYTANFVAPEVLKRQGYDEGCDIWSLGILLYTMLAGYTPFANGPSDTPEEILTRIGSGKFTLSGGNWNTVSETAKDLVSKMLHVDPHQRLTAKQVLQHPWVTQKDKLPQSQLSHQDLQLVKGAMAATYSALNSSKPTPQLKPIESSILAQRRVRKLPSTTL
UniProt Q9Y6E0: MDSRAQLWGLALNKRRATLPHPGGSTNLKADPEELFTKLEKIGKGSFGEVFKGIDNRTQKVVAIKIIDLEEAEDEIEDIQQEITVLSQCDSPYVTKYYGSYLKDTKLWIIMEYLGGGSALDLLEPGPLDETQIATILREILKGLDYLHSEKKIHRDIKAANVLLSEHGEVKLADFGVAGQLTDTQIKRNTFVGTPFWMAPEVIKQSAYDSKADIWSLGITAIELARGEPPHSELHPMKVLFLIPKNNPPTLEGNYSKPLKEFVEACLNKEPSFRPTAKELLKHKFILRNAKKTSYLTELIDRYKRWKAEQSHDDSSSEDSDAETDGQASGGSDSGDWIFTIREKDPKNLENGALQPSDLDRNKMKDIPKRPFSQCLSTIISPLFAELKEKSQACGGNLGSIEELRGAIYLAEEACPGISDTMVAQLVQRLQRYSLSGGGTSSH
UniProt Q15208: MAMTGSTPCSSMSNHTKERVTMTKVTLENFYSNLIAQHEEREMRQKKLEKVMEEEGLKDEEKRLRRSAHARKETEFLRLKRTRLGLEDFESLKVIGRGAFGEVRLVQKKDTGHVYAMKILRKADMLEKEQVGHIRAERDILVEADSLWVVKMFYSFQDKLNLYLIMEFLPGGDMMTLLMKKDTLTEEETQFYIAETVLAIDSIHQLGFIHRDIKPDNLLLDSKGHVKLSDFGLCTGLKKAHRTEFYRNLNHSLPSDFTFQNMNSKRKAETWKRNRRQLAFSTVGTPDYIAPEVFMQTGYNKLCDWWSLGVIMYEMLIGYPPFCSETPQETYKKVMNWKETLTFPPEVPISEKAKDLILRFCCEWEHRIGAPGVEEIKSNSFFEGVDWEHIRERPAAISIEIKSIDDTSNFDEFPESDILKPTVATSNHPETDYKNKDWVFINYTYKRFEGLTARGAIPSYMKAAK
UniProt P42680: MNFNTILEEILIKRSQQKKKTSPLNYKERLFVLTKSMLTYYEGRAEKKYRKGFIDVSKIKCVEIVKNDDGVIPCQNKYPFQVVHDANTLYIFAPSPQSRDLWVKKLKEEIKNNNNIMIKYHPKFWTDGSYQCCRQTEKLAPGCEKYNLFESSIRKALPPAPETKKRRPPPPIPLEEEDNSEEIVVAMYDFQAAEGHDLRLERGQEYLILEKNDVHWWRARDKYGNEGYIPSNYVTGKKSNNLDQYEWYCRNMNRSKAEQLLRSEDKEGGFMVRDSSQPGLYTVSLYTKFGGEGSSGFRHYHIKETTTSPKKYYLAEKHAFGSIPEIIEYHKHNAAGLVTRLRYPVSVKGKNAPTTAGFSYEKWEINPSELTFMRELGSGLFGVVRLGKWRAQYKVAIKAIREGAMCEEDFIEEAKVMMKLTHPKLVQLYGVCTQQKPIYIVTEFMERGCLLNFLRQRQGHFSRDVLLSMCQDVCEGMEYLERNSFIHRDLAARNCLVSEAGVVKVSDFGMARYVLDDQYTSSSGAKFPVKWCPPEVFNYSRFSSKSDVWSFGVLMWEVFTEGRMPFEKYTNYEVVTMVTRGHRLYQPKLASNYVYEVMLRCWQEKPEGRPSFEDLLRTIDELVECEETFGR
UniProt P29597: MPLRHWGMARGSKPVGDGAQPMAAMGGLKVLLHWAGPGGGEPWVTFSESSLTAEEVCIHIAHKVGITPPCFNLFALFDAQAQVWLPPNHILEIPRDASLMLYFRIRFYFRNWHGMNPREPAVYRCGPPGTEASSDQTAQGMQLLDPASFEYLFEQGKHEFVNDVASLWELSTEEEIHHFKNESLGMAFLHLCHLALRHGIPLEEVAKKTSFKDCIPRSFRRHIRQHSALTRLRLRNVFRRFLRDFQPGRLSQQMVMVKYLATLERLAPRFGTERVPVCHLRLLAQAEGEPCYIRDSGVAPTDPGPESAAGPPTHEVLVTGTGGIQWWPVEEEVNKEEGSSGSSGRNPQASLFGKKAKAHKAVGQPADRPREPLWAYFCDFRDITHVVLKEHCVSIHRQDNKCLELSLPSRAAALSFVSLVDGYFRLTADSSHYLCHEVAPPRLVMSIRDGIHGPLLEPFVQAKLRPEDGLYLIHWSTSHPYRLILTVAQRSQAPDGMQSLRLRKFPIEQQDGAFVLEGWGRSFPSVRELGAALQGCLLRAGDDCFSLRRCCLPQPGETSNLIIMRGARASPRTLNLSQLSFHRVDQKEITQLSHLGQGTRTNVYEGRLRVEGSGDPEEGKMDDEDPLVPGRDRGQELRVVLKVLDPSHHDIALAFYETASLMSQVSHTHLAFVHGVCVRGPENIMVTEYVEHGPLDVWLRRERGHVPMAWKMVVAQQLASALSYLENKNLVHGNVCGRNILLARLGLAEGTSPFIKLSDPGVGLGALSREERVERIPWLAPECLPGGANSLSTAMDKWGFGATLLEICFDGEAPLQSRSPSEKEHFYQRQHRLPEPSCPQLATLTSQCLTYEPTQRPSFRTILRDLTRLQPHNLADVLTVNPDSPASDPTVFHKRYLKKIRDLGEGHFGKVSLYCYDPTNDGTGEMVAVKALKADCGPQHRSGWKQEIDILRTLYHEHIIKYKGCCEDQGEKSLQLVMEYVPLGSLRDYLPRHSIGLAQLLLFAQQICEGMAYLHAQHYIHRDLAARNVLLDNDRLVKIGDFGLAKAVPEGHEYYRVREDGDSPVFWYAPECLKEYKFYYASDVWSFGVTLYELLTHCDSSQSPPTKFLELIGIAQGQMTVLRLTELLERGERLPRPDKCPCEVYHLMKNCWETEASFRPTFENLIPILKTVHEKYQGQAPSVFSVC
UniProt P07947, whole entry, looked up: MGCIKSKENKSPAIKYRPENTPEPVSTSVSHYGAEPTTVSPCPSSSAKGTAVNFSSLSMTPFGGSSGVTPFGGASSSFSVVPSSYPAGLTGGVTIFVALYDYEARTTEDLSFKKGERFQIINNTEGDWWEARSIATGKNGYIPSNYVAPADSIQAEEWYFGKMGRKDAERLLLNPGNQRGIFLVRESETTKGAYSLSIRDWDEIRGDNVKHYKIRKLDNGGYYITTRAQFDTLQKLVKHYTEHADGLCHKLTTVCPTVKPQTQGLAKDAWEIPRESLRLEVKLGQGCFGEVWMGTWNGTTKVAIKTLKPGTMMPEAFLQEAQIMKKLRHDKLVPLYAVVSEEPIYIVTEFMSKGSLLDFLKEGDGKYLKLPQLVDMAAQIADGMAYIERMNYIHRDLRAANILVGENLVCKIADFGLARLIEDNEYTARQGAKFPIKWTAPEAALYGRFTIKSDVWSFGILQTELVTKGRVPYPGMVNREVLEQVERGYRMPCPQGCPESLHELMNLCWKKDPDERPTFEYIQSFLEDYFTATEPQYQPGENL
UniProt P00519, whole entry: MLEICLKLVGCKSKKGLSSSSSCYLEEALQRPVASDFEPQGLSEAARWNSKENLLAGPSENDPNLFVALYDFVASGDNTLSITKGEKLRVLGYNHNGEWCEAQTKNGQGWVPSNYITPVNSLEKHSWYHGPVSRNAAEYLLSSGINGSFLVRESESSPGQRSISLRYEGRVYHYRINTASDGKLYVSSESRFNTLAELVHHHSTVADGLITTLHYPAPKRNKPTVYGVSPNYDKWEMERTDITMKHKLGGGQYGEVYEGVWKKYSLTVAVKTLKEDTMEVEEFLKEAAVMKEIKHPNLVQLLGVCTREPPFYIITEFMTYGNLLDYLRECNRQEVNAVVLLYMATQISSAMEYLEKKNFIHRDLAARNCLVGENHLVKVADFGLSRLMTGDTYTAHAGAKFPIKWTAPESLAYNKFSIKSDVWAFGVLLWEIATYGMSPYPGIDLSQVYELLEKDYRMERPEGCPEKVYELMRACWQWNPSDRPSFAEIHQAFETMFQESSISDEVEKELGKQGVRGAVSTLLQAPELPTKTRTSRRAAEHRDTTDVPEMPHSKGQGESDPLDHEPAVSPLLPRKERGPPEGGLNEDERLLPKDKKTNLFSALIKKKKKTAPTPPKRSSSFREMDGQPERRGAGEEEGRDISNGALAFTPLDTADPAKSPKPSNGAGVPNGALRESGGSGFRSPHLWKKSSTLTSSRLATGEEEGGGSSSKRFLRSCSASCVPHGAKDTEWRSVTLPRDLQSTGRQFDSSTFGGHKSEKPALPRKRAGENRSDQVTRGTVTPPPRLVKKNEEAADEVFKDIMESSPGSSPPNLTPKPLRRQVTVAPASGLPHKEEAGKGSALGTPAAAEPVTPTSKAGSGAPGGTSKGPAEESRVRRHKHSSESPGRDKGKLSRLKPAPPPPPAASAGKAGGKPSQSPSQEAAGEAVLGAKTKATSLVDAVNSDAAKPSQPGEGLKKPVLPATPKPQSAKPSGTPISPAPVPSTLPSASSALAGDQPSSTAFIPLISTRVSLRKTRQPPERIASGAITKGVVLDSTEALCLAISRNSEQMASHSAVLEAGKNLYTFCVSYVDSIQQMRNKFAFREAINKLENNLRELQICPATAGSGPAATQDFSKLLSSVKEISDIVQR
UniProt P31749: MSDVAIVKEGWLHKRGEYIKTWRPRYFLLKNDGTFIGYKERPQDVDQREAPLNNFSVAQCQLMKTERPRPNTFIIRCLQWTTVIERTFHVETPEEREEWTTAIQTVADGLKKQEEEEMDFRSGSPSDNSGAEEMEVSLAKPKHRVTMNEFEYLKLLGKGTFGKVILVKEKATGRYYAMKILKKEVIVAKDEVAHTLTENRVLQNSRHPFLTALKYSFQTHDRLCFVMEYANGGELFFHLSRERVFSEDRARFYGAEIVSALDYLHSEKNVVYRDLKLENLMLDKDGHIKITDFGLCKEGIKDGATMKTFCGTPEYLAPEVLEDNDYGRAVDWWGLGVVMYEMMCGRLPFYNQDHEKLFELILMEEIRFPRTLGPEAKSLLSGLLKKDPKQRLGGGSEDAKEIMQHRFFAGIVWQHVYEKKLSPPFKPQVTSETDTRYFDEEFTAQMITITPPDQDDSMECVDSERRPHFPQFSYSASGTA

How the values were obtained:
Details in all cases: K562; 2-18 h
RET = RET (UniProt P07949); assay: kinase-Nluc reporter destabilization hit call (1 = scored as downregulated) (binary); higher = compound decreases kinase abundance
[1] = target: RET_M918T (clone: RET_mut) (UniProt P07949); assay: as above
RIOK1 = RIOK1 (UniProt Q9BRS2); assay: as above
RIPK1 = RIPK1 (UniProt Q13546); assay: as above
RIPK2 = RIPK2 (UniProt O43353); assay: as above
ROR2 = ROR2 (UniProt Q01974); assay: as above
RPS6KA1 = RPS6KA1 (UniProt Q15418); assay: as above
SPHK1 = SPHK1 (UniProt Q9NYA1); assay: as above
SRC = SRC (UniProt P12931); assay: as above
STK24 = STK24 (UniProt Q9Y6E0); assay: as above
STK38 = STK38 (UniProt Q15208); assay: as above
SYK = SYK (UniProt P43405); assay: as above
TEC = TEC (UniProt P42680); assay: as above
TYK2 = TYK2 (UniProt P29597); assay: as above
ULK3 = ULK3 (UniProt Q6PHR2); assay: as above
YES1 = YES1 (UniProt P07947); assay: as above
ZAK = ZAK (UniProt Q9NYL2); assay: as above
ZAP70 = ZAP70 (UniProt P43403); assay: as above
ABL1 = ABL1 (UniProt P00519); assay: number of time points (of 5) at which kinase-Nluc abundance scored as decreased, DMSO-normalised (count); higher = more persistent destabilization
AKT1 = AKT1 (UniProt P31749); assay: as above

SMILES	kinase-Nluc reporter destabilization hit call (RET)	kinase-Nluc reporter destabilization hit call [1]	kinase-Nluc reporter destabilization hit call (RIOK1)	kinase-Nluc reporter destabilization hit call (RIPK1)	kinase-Nluc reporter destabilization hit call (RIPK2)	kinase-Nluc reporter destabilization hit call (ROR2)	kinase-Nluc reporter destabilization hit call (RPS6KA1)	kinase-Nluc reporter destabilization hit call (SPHK1)	kinase-Nluc reporter destabilization hit call (SRC)	kinase-Nluc reporter destabilization hit call (STK24)	kinase-Nluc reporter destabilization hit call (STK38)	kinase-Nluc reporter destabilization hit call (SYK)	kinase-Nluc reporter destabilization hit call (TEC)	kinase-Nluc reporter destabilization hit call (TYK2)	kinase-Nluc reporter destabilization hit call (ULK3)	kinase-Nluc reporter destabilization hit call (YES1)	kinase-Nluc reporter destabilization hit call (ZAK)	kinase-Nluc reporter destabilization hit call (ZAP70)	number of time points (ABL1)	number of time points (AKT1)
O=S(=O)(NCCCN1c2ccccc2CCc2ccc(Cl)cc21)c1ccc(OC(F)(F)F)cc1 (2.5 µM)	inactive: 0	inactive: 0	inactive: 0	inactive: 0	inactive: 0	inactive: 0	inactive: 0	inactive: 0	inactive: 0	inactive: 0	inactive: 0	inactive: 0	inactive: 0	inactive: 0	inactive: 0	inactive: 0	inactive: 0	inactive: 0	0	0
C=C1C(=O)O[C@H]2C[C@H](C)C(/C=C/C(C)=O)=CC[C@H]12 [Xanthatin] (2.5 µM)	inactive: 0	inactive: 0	inactive: 0	inactive: 0	inactive: 0	inactive: 0	inactive: 0	inactive: 0	inactive: 0	inactive: 0	inactive: 0	inactive: 0	inactive: 0	inactive: 0	inactive: 0	inactive: 0	inactive: 0	inactive: 0	0	0
COc1cccc(OC)c1C(=O)OCc1cc(O)ccc1O[C@@H]1O[C@H](CO)[C@@H](O)[C@H](O)[C@H]1O [Curculigoside] (10 µM)	inactive: 0	inactive: 0	inactive: 0	inactive: 0	inactive: 0	inactive: 0	inactive: 0	inactive: 0	inactive: 0	inactive: 0	inactive: 0	inactive: 0	inactive: 0	inactive: 0	inactive: 0	inactive: 0	inactive: 0	inactive: 0	0	0
CN(C)CCSSCCNC(=O)C1CCN(C(=O)CSc2ccc(Cl)cc2)CC1 (10 µM)	inactive: 0	inactive: 0	inactive: 0	inactive: 0	inactive: 0	inactive: 0	inactive: 0	inactive: 0	inactive: 0	inactive: 0	inactive: 0	inactive: 0	inactive: 0	inactive: 0	inactive: 0	inactive: 0	inactive: 0	inactive: 0	0	0
Cc1ccc(OCCSc2ncccn2)c(Br)c1 [ZLN024 (hydrochloride)] (10 µM)	inactive: 0	inactive: 0	inactive: 0	inactive: 0	inactive: 0	inactive: 0	inactive: 0	inactive: 0	inactive: 0	inactive: 0	inactive: 0	inactive: 0	inactive: 0	inactive: 0	inactive: 0	inactive: 0	inactive: 0	inactive: 0	0	0
C=CC(=O)Nc1cc(C)ccc1Nc1nc(Nc2cc(OC)ncc2C)ncc1C(F)(F)F (10 µM)	inactive: 0	inactive: 0	inactive: 0	inactive: 0	inactive: 0	inactive: 0	inactive: 0	inactive: 0	inactive: 0	inactive: 0	inactive: 0	inactive: 0	inactive: 0	inactive: 0	inactive: 0	inactive: 0	inactive: 0	inactive: 0	0	0
C=CC(=O)Nc1ccc(CN2C(=O)N(c3cc(OC)cc(OC)c3)Cc3cnc(Nc4ccc(N5CCN(C)CC5)cc4)nc32)cc1 (2.5 µM)	inactive: 0	inactive: 0	inactive: 0	inactive: 0	inactive: 0	inactive: 0	inactive: 0	inactive: 0	inactive: 0	inactive: 0	inactive: 0	inactive: 0	inactive: 0	inactive: 0	inactive: 0	inactive: 0	inactive: 0	inactive: 0	0	0
O=C(Nc1cn[nH]c1-c1ccccn1)c1nn(C2CCNCC2)cc1Cl (10 µM)	inactive: 0	inactive: 0	inactive: 0	inactive: 0	inactive: 0	inactive: 0	inactive: 0	inactive: 0	inactive: 0	inactive: 0	inactive: 0	inactive: 0	inactive: 0	inactive: 0	inactive: 0	inactive: 0	inactive: 0	inactive: 0	1	0
Cn1nccc1Nc1nccc(-c2ccn([C@H](CO)c3ccc(Cl)c(F)c3)c(=O)c2)n1 [Ravoxertinib] (10 µM)	inactive: 0	inactive: 0	inactive: 0	inactive: 0	inactive: 0	inactive: 0	inactive: 0	inactive: 0	inactive: 0	inactive: 0	inactive: 0	inactive: 0	inactive: 0	inactive: 0	inactive: 0	inactive: 0	inactive: 0	inactive: 0	0	0
NC(=O)c1ccc(-c2nc(-c3ccc4c(c3)OCCO4)c(-c3ccccn3)[nH]2)cc1 (10 µM)	inactive: 0	inactive: 0	inactive: 0	inactive: 0	inactive: 0	inactive: 0	inactive: 0	inactive: 0	inactive: 0	inactive: 0	inactive: 0	inactive: 0	inactive: 0	inactive: 0	inactive: 0	inactive: 0	inactive: 0	inactive: 0	0	0
O=C(Nc1ccc(CN2CCOCC2)cc1)c1ccc(-c2cccc(Cl)c2)o1 (10 µM)	inactive: 0	inactive: 0	inactive: 0	inactive: 0	inactive: 0	inactive: 0	inactive: 0	inactive: 0	inactive: 0	inactive: 0	inactive: 0	inactive: 0	inactive: 0	inactive: 0	inactive: 0	inactive: 0	inactive: 0	inactive: 0	4	0
COc1cc(Nc2ncc(F)c(Nc3ccc4c(n3)N(COP(=O)(O)O)C(=O)C(C)(C)O4)n2)cc(OC)c1OC [Fostamatinib Disodium] (10 µM)	inactive: 0	inactive: 0	inactive: 0	inactive: 0	inactive: 0	inactive: 0	inactive: 0	inactive: 0	inactive: 0	inactive: 0	inactive: 0	inactive: 0	inactive: 0	inactive: 0	inactive: 0	inactive: 0	inactive: 0	inactive: 0	0	0
CN(C)C(=O)Cn1cc(-c2ccc(-c3cncc4ccccc34)cc2)cn1 (10 µM)	inactive: 0	inactive: 0	inactive: 0	inactive: 0	inactive: 0	inactive: 0	inactive: 0	inactive: 0	inactive: 0	inactive: 0	inactive: 0	inactive: 0	inactive: 0	inactive: 0	inactive: 0	inactive: 0	inactive: 0	inactive: 0	0	0
Oc1ccc(Nc2nc(-c3ccc(Cl)cc3)cs2)cc1 (10 µM)	inactive: 0	inactive: 0	inactive: 0	inactive: 0	inactive: 0	inactive: 0	inactive: 0	inactive: 0	inactive: 0	inactive: 0	inactive: 0	inactive: 0	inactive: 0	inactive: 0	inactive: 0	inactive: 0	inactive: 0	inactive: 0	0	0
O=C1NC(=O)/C(=C\c2cccc(C(F)(F)F)c2)S1 (2.5 µM)	inactive: 0	inactive: 0	inactive: 0	inactive: 0	inactive: 0	inactive: 0	inactive: 0	inactive: 0	inactive: 0	inactive: 0	inactive: 0	inactive: 0	inactive: 0	inactive: 0	inactive: 0	inactive: 0	inactive: 0	inactive: 0	0	0
C[C@@H](c1ccc(F)cc1)n1nnc2cnc3ccc(-c4ccc5ocnc5c4)cc3c21 (10 µM)	inactive: 0	inactive: 0	inactive: 0	inactive: 0	inactive: 0	inactive: 0	inactive: 0	inactive: 0	inactive: 0	inactive: 0	inactive: 0	inactive: 0	inactive: 0	inactive: 0	inactive: 0	inactive: 0	inactive: 0	inactive: 0	0	0
CCOc1ccc2cc(-c3nn(CC4CCN(C)CC4)c4ncnc(N)c34)ccc2n1 (10 µM)	inactive: 0	inactive: 0	inactive: 0	inactive: 0	inactive: 0	inactive: 0	inactive: 0	inactive: 0	inactive: 0	inactive: 0	inactive: 0	inactive: 0	inactive: 0	inactive: 0	inactive: 0	inactive: 0	inactive: 0	inactive: 0	0	0
CCC(C)N1c2ccccc2C(=O)N(C)c2cnc(Nc3ccc(C(=O)N4CCC(N5CCN(C)CC5)CC4)cc3OC)nc21 (stereo not given) (2.5 µM)	inactive: 0	inactive: 0	inactive: 0	inactive: 0	inactive: 0	inactive: 0	inactive: 0	inactive: 0	inactive: 0	inactive: 0	inactive: 0	inactive: 0	inactive: 0	inactive: 0	inactive: 0	inactive: 0	inactive: 0	inactive: 0	0	0
O=C1N[C@@H](Cc2c[nH]c3ccccc23)C(=O)N2CCC[C@@H]12 [Brevianamide F] (10 µM)	inactive: 0	inactive: 0	inactive: 0	inactive: 0	inactive: 0	inactive: 0	inactive: 0	inactive: 0	inactive: 0	inactive: 0	inactive: 0	inactive: 0	inactive: 0	inactive: 0	inactive: 0	inactive: 0	inactive: 0	inactive: 0	0	0

3 compounds from above, arranged by molecular weight, descending.
SMILES	kinase-Nluc reporter destabilization hit call (RET)	kinase-Nluc reporter destabilization hit call [1]	kinase-Nluc reporter destabilization hit call (RIOK1)	kinase-Nluc reporter destabilization hit call (RIPK1)	kinase-Nluc reporter destabilization hit call (RIPK2)	kinase-Nluc reporter destabilization hit call (ROR2)	kinase-Nluc reporter destabilization hit call (RPS6KA1)	kinase-Nluc reporter destabilization hit call (SPHK1)	kinase-Nluc reporter destabilization hit call (SRC)	kinase-Nluc reporter destabilization hit call (STK24)	kinase-Nluc reporter destabilization hit call (STK38)	kinase-Nluc reporter destabilization hit call (SYK)	kinase-Nluc reporter destabilization hit call (TEC)	kinase-Nluc reporter destabilization hit call (TYK2)	kinase-Nluc reporter destabilization hit call (ULK3)	kinase-Nluc reporter destabilization hit call (YES1)	kinase-Nluc reporter destabilization hit call (ZAK)	kinase-Nluc reporter destabilization hit call (ZAP70)	number of time points (ABL1)	number of time points (AKT1)
C=CC(=O)Nc1ccc(CN2C(=O)N(c3cc(OC)cc(OC)c3)Cc3cnc(Nc4ccc(N5CCN(C)CC5)cc4)nc32)cc1 (2.5 µM)	inactive: 0	inactive: 0	inactive: 0	inactive: 0	inactive: 0	inactive: 0	inactive: 0	inactive: 0	inactive: 0	inactive: 0	inactive: 0	inactive: 0	inactive: 0	inactive: 0	inactive: 0	inactive: 0	inactive: 0	inactive: 0	0	0
C=CC(=O)Nc1cc(C)ccc1Nc1nc(Nc2cc(OC)ncc2C)ncc1C(F)(F)F (10 µM)	inactive: 0	inactive: 0	inactive: 0	inactive: 0	inactive: 0	inactive: 0	inactive: 0	inactive: 0	inactive: 0	inactive: 0	inactive: 0	inactive: 0	inactive: 0	inactive: 0	inactive: 0	inactive: 0	inactive: 0	inactive: 0	0	0
O=C1NC(=O)/C(=C\c2cccc(C(F)(F)F)c2)S1 (2.5 µM)	inactive: 0	inactive: 0	inactive: 0	inactive: 0	inactive: 0	inactive: 0	inactive: 0	inactive: 0	inactive: 0	inactive: 0	inactive: 0	inactive: 0	inactive: 0	inactive: 0	inactive: 0	inactive: 0	inactive: 0	inactive: 0	0	0
